## Library screen at single concentrations

Protein sequences, listed by entry. Tags and fused reporters are not part of them. Residues count along the entry.
UniProt Q4DA54, 1-478: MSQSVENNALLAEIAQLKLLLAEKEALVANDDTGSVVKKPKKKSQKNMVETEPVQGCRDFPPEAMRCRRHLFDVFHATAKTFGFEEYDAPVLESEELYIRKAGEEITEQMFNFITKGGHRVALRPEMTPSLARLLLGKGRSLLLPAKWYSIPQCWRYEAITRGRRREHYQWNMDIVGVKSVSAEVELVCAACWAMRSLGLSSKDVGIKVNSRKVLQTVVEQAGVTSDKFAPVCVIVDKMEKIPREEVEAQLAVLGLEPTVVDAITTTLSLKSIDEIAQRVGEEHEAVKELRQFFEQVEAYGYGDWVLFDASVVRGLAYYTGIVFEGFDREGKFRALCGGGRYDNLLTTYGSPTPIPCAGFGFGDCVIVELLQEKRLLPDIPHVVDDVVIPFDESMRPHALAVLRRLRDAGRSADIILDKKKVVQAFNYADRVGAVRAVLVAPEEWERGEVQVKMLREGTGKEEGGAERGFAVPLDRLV
UniProt P9WNZ1, whole entry: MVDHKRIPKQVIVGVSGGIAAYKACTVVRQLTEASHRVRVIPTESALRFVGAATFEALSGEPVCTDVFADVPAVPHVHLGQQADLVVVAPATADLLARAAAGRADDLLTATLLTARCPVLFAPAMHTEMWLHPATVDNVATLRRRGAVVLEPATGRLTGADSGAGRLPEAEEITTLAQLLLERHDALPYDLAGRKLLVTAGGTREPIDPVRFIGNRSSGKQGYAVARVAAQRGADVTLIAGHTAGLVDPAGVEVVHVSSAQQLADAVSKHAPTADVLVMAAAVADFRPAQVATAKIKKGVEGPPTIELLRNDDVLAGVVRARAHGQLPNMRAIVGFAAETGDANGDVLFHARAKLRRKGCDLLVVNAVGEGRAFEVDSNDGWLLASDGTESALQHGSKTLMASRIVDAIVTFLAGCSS
UniProt A4I591, 1-473: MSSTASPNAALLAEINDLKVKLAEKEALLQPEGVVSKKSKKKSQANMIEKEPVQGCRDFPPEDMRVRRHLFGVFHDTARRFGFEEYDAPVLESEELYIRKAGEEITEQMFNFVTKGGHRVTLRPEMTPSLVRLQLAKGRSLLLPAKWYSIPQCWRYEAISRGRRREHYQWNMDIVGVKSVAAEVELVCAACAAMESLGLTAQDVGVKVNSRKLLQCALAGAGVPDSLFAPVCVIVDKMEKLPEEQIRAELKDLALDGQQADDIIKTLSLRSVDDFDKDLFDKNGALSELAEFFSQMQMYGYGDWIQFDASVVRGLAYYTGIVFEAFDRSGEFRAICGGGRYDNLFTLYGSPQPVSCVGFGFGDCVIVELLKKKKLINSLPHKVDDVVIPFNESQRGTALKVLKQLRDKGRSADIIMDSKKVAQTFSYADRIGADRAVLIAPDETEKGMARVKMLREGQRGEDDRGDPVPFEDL

Data taken from ChEMBL document CHEMBL3988442, “University of Dundee, Small-Polar-MMV Screening Library” (2021).

Each number is a percent effect as filed. How 0% and 100% were set is not recorded. Most values in the screen are low, and negative values occur. Compounds were drawn at random from those tested, without regard to their results. A dash means the value is not listed here; it may have been measured.

TcHisRS: 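Histidine-tRNA ligase, Trypanosoma cruzi CL Brener (UniProt Q4DA54). Enzyme assay of histidyl-tRNA synthetase; the read-out is not stated. Compounds at 30 µM. Direction is inferred from retests: higher values go with stronger inhibition. Of about 69,000 compounds tested this way, about 31 (0.045%) reached 50% or more in at least one test.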
Leishmania in macrophages: 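Cell assay of Leishmania donovani living inside macrophages; the read-out is not stated. Compounds at 30 µM. The record gives no direction; compounds that gave an IC50 in retests scored well above the rest, so higher reads as stronger inhibition. About 69,000 compounds were tested under these conditions; 1.5% (about 1,000) showed 50% or more at least once.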
Toxoplasma: 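Assay of Toxoplasma gondii numbers, read through their beta-galactosidase reporter with a colour substrate. Concentration: 10 µM. Higher reads as fewer parasites (inferred from which compounds were picked for retests). About 67,000 compounds were tested under these conditions; 0.38% (about 260) showed 50% or more at least once.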
CoaBC: 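Coenzyme A biosynthesis protein CoaBC, Mycobacterium tuberculosis (UniProt P9WNZ1). Enzyme assay of CoaBC with a phosphate dye (Biomol Green) read at 650 nm. Compounds at 30 µM. Direction is inferred from only a few compounds that gave an IC50; most scored high, so higher reads as stronger inhibition. Most strong results did not repeat in a second test. About 67,000 compounds were tested under these conditions; 0.06% (about 40) showed 50% or more at least once.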
LiHisRS: 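Histidine-tRNA ligase, Leishmania infantum (UniProt A4I591). Enzyme assay of histidyl-tRNA synthetase; the read-out is not stated. Concentration: 30 µM. Higher reads as stronger inhibition (inferred: compounds with an IC50 in retests scored well above the rest). The assay is labelled LdHisRS but filed under L. infantum. About 69,000 compounds were tested under these conditions; 0.6% (about 410) showed 50% or more at least once.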

COCCCN1CC2(CCCCN2C(C)=O)CC1=O (stereo not given) gave TcHisRS: 0%; Leishmania in macrophages: 13.42%; Toxoplasma: 7.929%; LiHisRS: 5.172%.
O=C(Nc1cccc(C(=O)OCC2CCCN2)c1)c1ccoc1 (stereo not given) gave TcHisRS: 2.469%; CoaBC: 3.067%; LiHisRS: 7.843%.
CC(C)(C)c1cc(CN2CCOCC(O)C2)n[nH]1 (stereo not given) gave TcHisRS: 2.646%; Leishmania in macrophages: -2.638%; Toxoplasma: 9.224%; CoaBC: -0.4073%; LiHisRS: 8.824%.
[H][C@]12CC[C@]([H])(CN(C(=O)Cn3c(C)cc(C)nc3=O)C1)N(CC=C(C)C)C2 gave Leishmania in macrophages: 42.44%; Toxoplasma: 3.548%.
CNS(=O)(=O)CC(=O)N1CCC(c2cc3ccccc3[nH]2)CC1 gave TcHisRS: 6.25%; Leishmania in macrophages: 3.342%; Toxoplasma: -25.15%; CoaBC: 1.132%; LiHisRS: 15.93%.
O=C(NS(=O)(=O)Cc1ccc(F)cc1)C1CCc2ccccc21 (stereo not given) gave TcHisRS: 3.226%; Leishmania in macrophages: 18.63%; Toxoplasma: -19.5%; CoaBC: 0.7246%; LiHisRS: 19.19%.
Cc1cc(C(=O)NC(C)c2nnn[nH]2)c2ccc(C)c(C)c2n1 (stereo not given) gave TcHisRS: 3.704%; Leishmania in macrophages: -18.48%; Toxoplasma: -7.346%; CoaBC: -3.686%; LiHisRS: 4.301%.
Cn1c(CNc2c(F)cccc2-n2cccn2)cc(=O)n(C)c1=O gave TcHisRS: -1.626%; Leishmania in macrophages: -6.187%; Toxoplasma: -8.898%; CoaBC: 7.595%; LiHisRS: 20.19%.
COc1ccc(C(CO)NC(=O)Nc2cccc(C(C)=O)c2)cc1 (stereo not given) gave TcHisRS: 6.186%; Leishmania in macrophages: 24%; Toxoplasma: 8.011%; CoaBC: -0.7335%; LiHisRS: 12.9%.
CC(C)C(C(=O)N1CCN(c2ccncc2)CC1)n1cncn1 (stereo not given) gave TcHisRS: 0.8368%; Leishmania in macrophages: 24.05%; Toxoplasma: 21.69%; CoaBC: 3.636%; LiHisRS: 17.92%.
COc1ccccc1OCCc1cc(C2CCNC2)n[nH]1 (stereo not given) gave TcHisRS: -0.7463%; CoaBC: 3.163%; LiHisRS: -13.68%.
CS(=O)(=O)N1C[C@@H]2CC[C@H](C1)N(C(=O)CCc1n[nH]c3c1CCCC3)C2 gave TcHisRS: 11.04%; CoaBC: 1.572%; LiHisRS: 14.52%.
CNC(=O)COC1COC2(CCN(c3ncccn3)CC2)C1 (stereo not given) gave TcHisRS: 6.452%; CoaBC: 5.708%; LiHisRS: 15.79%.
O=C(CN1CC(c2nc(Cc3ccccc3)no2)C1)NCC1CCCO1 (stereo not given) gave TcHisRS: 7.216%; CoaBC: 7.4%; LiHisRS: 13.91%.
COc1ccc(OCCN2CCN(Cc3nccn3C)CC2)cc1 gave TcHisRS: -1.734%; Leishmania in macrophages: -8.965%; Toxoplasma: -11.09%; CoaBC: 3.52%; LiHisRS: 4.386%.
CN(C)c1ncnc2c1CCN(CC1CCOC1)CC2 (stereo not given) gave TcHisRS: 0.5525%; CoaBC: 10.28%; LiHisRS: 12.03%.
Cc1cnn(CCNCC(=O)N2CCN(c3ncccn3)CC2)c1 gave TcHisRS: 5.82%; Leishmania in macrophages: 15.62%; Toxoplasma: -6.409%; CoaBC: 7.356%; LiHisRS: 9.333%.
[H][C@@]12CCN(c3nncs3)C[C@@]1([H])O[C@@H](C(=O)NCCc1ccncc1)C2 gave Leishmania in macrophages: 0.4462%; Toxoplasma: -8.318%.

Some entries from above, unchanged:

SMILES	TcHisRS	Leishmania in macrophages	Toxoplasma	CoaBC	LiHisRS
COc1ccc(C(CO)NC(=O)Nc2cccc(C(C)=O)c2)cc1 (stereo not given)	6.186%	24%	8.011%	-0.7335%	12.9%
[H][C@@]12CCN(c3nncs3)C[C@@]1([H])O[C@@H](C(=O)NCCc1ccncc1)C2	-	0.4462%	-8.318%	-	-